Data reported in PMC7438335.
Results are given in words; binding and its absence hold for the method and conditions named. In cells and extracts the contact can be indirect. Where a sequence is shown, tags or fusion partners need not be part of it.

Molecular target: T1, CENP-A^CID::YFP fusion protein (Drosophila), Q9V6Q2
T1 chain: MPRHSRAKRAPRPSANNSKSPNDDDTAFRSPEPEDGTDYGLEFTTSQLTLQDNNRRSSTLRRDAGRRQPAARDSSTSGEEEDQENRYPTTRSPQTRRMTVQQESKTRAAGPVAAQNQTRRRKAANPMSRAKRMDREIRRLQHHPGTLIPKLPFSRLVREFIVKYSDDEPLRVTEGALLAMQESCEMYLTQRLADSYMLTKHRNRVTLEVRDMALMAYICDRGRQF
Experiment: co-IP; extracts of a stable S2 cell line expressing CENP-A^CID::YFP; IP with αBAF or αGFP antibodies, WB
Conditions: remark: other sources report otherwise

binding: no binding
B1: CENP-C, Q9VHP9 1-1411 (protein)
chain: MSKPQNNDTLELDDILSQPVKDKERFAAFMMRKLAENKPAQNDNLFGNFKLDFDLDFEVPLIKKSQAKPKSKLPEVQPLGELVSKNSAATEKVNEPPVDQAPNENVPPRRSPTLSPNNRRSMRRSGNVPGSDKLRRHAIRRRSRSCGRQLLPEFEETVNLTRSISSPVNFLPEISSTPCTEKQKEEVAKNTTRVETDKPAEKPMELSQEPEPENPLQTKVTSPARNPILAAEIEQICKERQSSFHKNVLQLDYSGRAPYSRPPTPSSPSVAGLRRTYTMEKGPAPGQLLLSPSHRYDTPSKMPVVKAKRFNQELMVPDTPERQSHDPAWQSEPQPEFVVPETQPQDLGELVQTLSRSAISPIVVINTSNSNRSVRRDAVAMKSVPTSPVTALSSPPIAPSPRRSAAASPQKSIAQLPRVEENMDAIMTDDESDEHPSTVPLNLAPSGGNTTRQRRLRSSNRARATIESQESSMRLLNLHKSVNAKKSKPRKTAIPLNKAPSAPINGEQFARELTRMSNYEILDLRKRNSLNEIYPLNGHRNHRSEKLILEEEIQRELLRRNLMDEAEGLPKQQSSDDSNEDYIPVPPKTQSLRTKSNDRSQGRGRPRSTRRDLPMTTELVNYLGLSQTLETRRKSSKDGKRCLYTKGSSDHEDNDSLSPVKLPRLSKSIQIVPPPPVSLRYSQSLQNLPCSGKFDFDNVVMAAPPDFHDSVNSDAIEIAPPPPEYVVNTRGRSTSGRKSNKNDLVLPPPGYEGGQEEEHDERPSQPRCTAKELQQSTQNGRRAMENELVPPPIEYVEEENRNNEQSRRSTKNGNLVDRNTHNAVEYCEPPEPPEYDDSDHGQASILRRSGKKLQHSKQSVQKSNKEQIIAPSYENNEDYDSDEEPIYNEEYGKEESQNKNVTRRKSDKDEMASHTLECIEGPDPNWNSSCNKQNRNHQNASKSKENDKLANRSSKSQKLSNPRQNAVGTEKSVALSNRGEECTEKSSDVMESLRVNTPTPPIDQNSDDVPSRNPSPSRTLLSDDVPSTSRAALEFLQRSQNMSKSRPPDESSADVVFKKPLAPAPRAKSKKGKSEVDKLKLAKMPVEAEELNTTGIRRSKRGQVPLQMSWCHTMDPSKFNFMSGFIEPRSKNSKTKKGNLSKAKKASATKPKPTVEKNLPDNRGPLCSSTPRISEKLPGAIPHSESLGLSTLTWEETEVQAEAEKVPKKRGRPKKAVGGVQTDTEAEPEPEPEPMISSVAPLTSDQEEPDVPDEQAPYTEAALGPVVFSTPLRDEQEEASTKLMQWLRGVGDAPPSASMSDENASVSSANELIFCQVDGIDYAFYNTKEKAMLGYMRFKPYQKRSMKQAKVHPLKLLVQFGEFNVETLAVGEEKEVHSVLRVGDMIEIDRGTRYSIQNAIDKVSVLMCIRS
